Source: PubChem BioAssay AID1671190 (National Center for Advancing Translational Sciences (NCATS), 2021)
“And” between values parts separate entries of the source, which are not always exact repeats. Equal entries are not always repeated. The campaign covered roughly 580,000 compounds. About 6,100 (1.1%) were called active. The shares of active, inactive and inconclusive entries below differ from those in the screen. The call rests on the fitted dose curve; in most records, active means well fitted inhibition curve with a large enough effect; inconclusive means small, poorly fitted or top-dose-only effect, or another doubt; inactive means no such curve, though single readings can be large or run the other way. Potencies of inconclusive entries are doubtful fits and often do not repeat.

Sequences of proteins named here, by UniProt entry; tags and fusion partners are left off.
UniProt P18054, whole entry, looked up: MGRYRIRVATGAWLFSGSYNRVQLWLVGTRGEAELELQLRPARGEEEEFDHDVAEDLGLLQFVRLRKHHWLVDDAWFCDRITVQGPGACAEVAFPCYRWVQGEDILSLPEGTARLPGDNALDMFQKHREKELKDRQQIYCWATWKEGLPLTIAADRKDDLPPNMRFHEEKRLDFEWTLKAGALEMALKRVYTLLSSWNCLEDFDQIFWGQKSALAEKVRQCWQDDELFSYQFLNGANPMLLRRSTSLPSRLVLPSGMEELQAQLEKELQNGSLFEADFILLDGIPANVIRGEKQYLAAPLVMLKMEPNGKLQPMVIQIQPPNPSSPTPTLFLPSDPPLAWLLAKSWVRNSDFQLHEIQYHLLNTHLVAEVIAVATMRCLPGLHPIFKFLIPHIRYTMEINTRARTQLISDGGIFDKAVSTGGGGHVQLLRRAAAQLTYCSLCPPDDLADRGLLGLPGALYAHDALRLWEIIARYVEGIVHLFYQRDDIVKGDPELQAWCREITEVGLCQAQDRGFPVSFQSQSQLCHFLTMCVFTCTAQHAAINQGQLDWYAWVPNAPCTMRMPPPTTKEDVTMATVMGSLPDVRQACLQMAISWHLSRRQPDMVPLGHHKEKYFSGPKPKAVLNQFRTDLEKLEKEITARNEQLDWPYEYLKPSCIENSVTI

target: Polyunsaturated fatty acid lipoxygenase ALOX12 (Homo sapiens) (UniProt P18054); assay: Primary qHTS assay for inhibitors of human arachidonate 12S-lipoxygenase (ALOX12): Round 2; details: purified 12hLO, xylenol orange hydroperoxide absorbance; activity change, negative = inhibition: at 108 µM (top of the series) unless noted
Summary of the method: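 Hydroperoxide product was detected by ferrous iron/xylenol orange as the 573 to 405 nm absorbance ratio. Arachidonic acid at 40 uM (final) was turned over for 30 min at room temperature by 150 nM human 12hLO, pH 7.0 Hepes buffer, after 15 min compound preincubation.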
On the % scale 0 is the no-effect control and ±100 the full control effect; potency means the concentration at half of the fitted maximal effect.

| Structure (SMILES) | Potency | activity change, negative = inhibition |
| --- | --- | --- |
| O=C1NC[C@H](Cc2ccccc2)N(C[C@@H]2CCCN2C[C@H](Cc2ccccc2)N2C[C@H](Cc3ccccc3)N(CC3CCCCC3)C(=O)C2=O)C1=O | inconclusive: 141 µM [inhibitor, single point] |  |
| Cc1ccc(S(=O)(=O)N2CCC(C(=O)Nc3ccc(N4CCOCC4)cc3)CC2)cc1C | inconclusive: 4.47 µM [inhibitor, full curve, poor fit] |  |
| O=C1c2cc(CO)cc(O)c2C(=O)c2c(O[C@@H]3OC(CO)[C@@H](O)[C@@H](O)[C@@H]3O)cccc21 (stereo not given in full) | inconclusive: 89.1 µM [inhibitor, partial curve, poor fit] |  |
| Cc1ccc(CNC(=O)c2ccc(Cn3nc(C)c(Cl)c3C)o2)cc1 | inconclusive: 44.7 µM [inhibitor, partial curve, poor fit] |  |
| Cc1cc(N2CCCCC2)nc2ccc(NC(=O)c3cccc(Cl)c3)cc12 |  | inactive: -28.8% |
| CCN(CC)c1ccc(NS(=O)(=O)c2ccc(C)c(C)c2)cc1 | inconclusive: 44.7 µM [inhibitor, partial curve, poor fit] |  |
| Cc1cc2nc(-c3ccc(Cl)cc3)c(Cc3cccc(Cl)c3)n2c(C)c1Br | inconclusive: 44.7 µM [inhibitor, partial curve, poor fit] |  |
| Cc1cc2n(n1)C(c1cc(C(C)(C)C)c(O)cc1O)Nc1ccccc1-2 (stereo not given) | inconclusive: 79.4 µM [inhibitor, partial curve, poor fit] |  |
| N=c1ccn(CC(=O)c2ccc(-c3ccccc3)cc2)cc1 |  | inactive: -6.61% |
| Cc1cccc(NC(=O)N2CCC(Oc3ncccc3C(=O)N3CCOCC3)C2)c1 (stereo not given) |  | inactive: 18.2% |
| N#Cc1ccc(CN2CCCc3ccccc32)cc1 |  | inactive: 99% |
| O=C(Nc1cccc([N+](=O)[O-])c1)c1ccc([N+](=O)[O-])o1 |  | inactive: -7.85% |
| CC1CCN(CC(C)OC(=O)c2cccs2)CC1 (stereo not given) | inconclusive: 70.8 µM [inhibitor, partial curve, poor fit] |  |
| CCCNc1nc(-c2cc(C)n(-c3cc(C)on3)c2C)cs1 | inconclusive: 44.7 µM [inhibitor, partial curve, poor fit] |  |
| CC(=O)/C(=N\Nc1ccccc1)Oc1ccc([N+](=O)[O-])cc1 |  | inactive: -20.3% |
| O=C(Nc1nc2ccc(F)cc2s1)c1cc(=O)c2ccccc2o1 | inconclusive: 100 µM [inhibitor, single point] |  |
| COc1ccc(NC(=O)COc2ccc(-c3nn(C)c(=O)c4ccccc34)cc2)cc1 | inactive and inconclusive: 28.2 µM [inhibitor, single point] |  |
| COc1ccc(C[C@H]2CN3C(=NC[C@@H]3Cc3ccccc3)N2CCNC(=O)CCC2CCCCC2)cc1 | inconclusive: 50.1 µM [inhibitor, partial curve, poor fit] |  |
| N#CCC(=O)c1sccc1-n1cccc1 | inconclusive: 70.8 µM [inhibitor, partial curve, poor fit] |  |
| COc1ccccc1-c1nnc(SCC(=O)c2ccc(Cl)cc2)n1-c1ccccc1 |  | inactive: -14.5% |
| Cc1nc2cc(Cl)ccc2cc1C(=O)NCC(F)(F)F |  | inactive: 20.6% |
| COc1ccc(Cc2nnc(NS(=O)(=O)c3ccc(Cl)cc3)s2)cc1OC | inconclusive: 50.1 µM [inhibitor, partial curve, poor fit] |  |

| Structure (SMILES) | Potency | activity change, negative = inhibition |
| --- | --- | --- |
| O=c1cc(N2CCN(c3cccc(C(F)(F)F)c3)CC2)nc2ccccn12 |  | inactive: 3.65% |
| COc1ccc(NC(c2ccccc2)c2ccncc2)cc1 (stereo not given) | inconclusive: 31.6 µM [inhibitor, partial curve, poor fit] |  |
| COc1ccc(NC(=O)Cn2nc(-c3ccc(C)cc3)c3ccccc3c2=O)cc1 | inconclusive: 50.1 µM [inhibitor, partial curve, poor fit] |  |
| CC(NC(=O)c1ccc2c(c1)CCN2S(=O)(=O)c1ccc(Cl)cc1)c1ccccc1 (stereo not given) | inconclusive: 5.62 µM [inhibitor, full curve, poor fit] |  |
| Cc1ccc(NC(=S)Nc2ccc3cn[nH]c3c2)cc1C | inconclusive: 44.7 µM [inhibitor, partial curve, poor fit] |  |
| CCOc1ccc(NC(=O)CSc2nc3c(oc4ccccc43)c(=O)n2-c2ccccc2C)cc1 |  | inactive: -24% |
| C[N+](C)(C)CCNC(=O)c1c[nH]c2ccccc12 | inconclusive: 17.8 µM [inhibitor, partial curve, poor fit] |  |
| O=c1cc(-c2ccccc2Cl)oc2c([N+](=O)[O-])c(O)cc(O)c12 | inconclusive: 50.1 µM [inhibitor, partial curve, poor fit] |  |
| O=C(c1ccoc1)N1CCN(c2cc(-c3ccco3)nc3cc(-c4ccccc4)nn23)CC1 | inconclusive: 35.5 µM [inhibitor, single point] |  |
| O=c1c(-c2ccco2)[n+]([O-])c2ccccc2n1OCc1c(F)cccc1F | inconclusive: 79.4 µM [inhibitor, partial curve, poor fit] |  |
| C/C(=N/NC(=O)c1ccc(Br)o1)c1cccc(NC(=O)c2ccc(C)o2)c1 |  | inactive: 1.01% |
| Nc1sc(-c2ccccc2)cc1C(=O)NCCc1ccc(Cl)cc1 | active: 39.8 µM |  |
| COc1ccc(-c2nc3ccc(N4CCCC4)cc3c(=O)[nH]2)cc1OC |  | inactive: 0% |
| O=C(Nc1ccccc1N1CCCC1)C1CCN(S(=O)(=O)c2ccccc2)CC1 |  | inactive: 4.72% |
| Cc1ccc(-n2nc(C)c([C@@H]3C=C[C@@H](NCc4ccc(F)cc4)C3)c2C)cc1Cl | inconclusive: 35.5 µM [inhibitor, full curve] |  |
| CNS(=O)(=O)c1cccc(C(=O)OCC(=O)c2ccc3[nH]c(=O)[nH]c3c2)c1 | inconclusive: 100 µM [inhibitor, single point] |  |
| C=CCn1nnnc1SCC(=O)Nc1cccc(C(F)(F)F)c1 | inconclusive: 44.7 µM [inhibitor, partial curve, poor fit] |  |
| COC(=O)c1ccc2c(=O)[nH]c(CN3c4ccccc4CC3C)nc2c1 (stereo not given) |  | inactive: -0.73% |
| CC(C)CN1C(=O)c2cccn2CC1CN (stereo not given) |  | inactive: 34% |
| CCOC(=O)C1=C(C)NC2=C(C(=O)c3ccccc32)C1c1cccc2ccccc12 (stereo not given) | inconclusive: 28.2 µM [inhibitor, single point] |  |
| CC(CNCc1cccs1)CN1CCCCC1 (stereo not given) | inconclusive: 12.6 µM [inhibitor, full curve, poor fit] |  |
| O=C(O)CSc1ncn[nH]1 | inconclusive: 31.6 µM [inhibitor, partial curve, poor fit] |  |

| Structure (SMILES) | Potency | activity change, negative = inhibition |
| --- | --- | --- |
| O=C(N[C@H]1CCC(=O)N(CCSc2ccc(Br)cc2)CC1)OCc1ccccc1 | inconclusive: 112 µM [inhibitor, single point] |  |
| C=CCNc1nc(C(=O)OC(C)C(=O)Nc2ccc(N3CCOCC3)cc2)cs1 (stereo not given) |  | inactive: 6.58% |
| OCCNC(=S)Nc1ccc(Br)cc1 | inconclusive: 44.7 µM [inhibitor, single point] |  |
| O=C(NCCc1c[nH]c2ccccc12)OCc1cn(Cc2ccc(F)cc2F)nn1 | inconclusive: 100 µM [inhibitor, single point] |  |
| CCCCCCn1c(=O)n2n(c1=O)[C@@H]1CN(S(=O)(=O)c3ccc(C)cc3)C[C@]1(O)[C@@H](OC(=O)Nc1cccs1)C2 |  | inactive: 0% |
| C#CCOCC1CNC(=S)O1 (stereo not given) | inconclusive: 31.6 µM [inhibitor, full curve, poor fit] |  |
| COC(=O)C(Cl)(C(=O)OC)C(OC)(C(=O)OC)C(=O)OC |  | inactive: -17.8% |
| O=C(Nc1ccc(Cl)c(S(=O)(=O)N2CCCCC2)c1)c1ccco1 | inconclusive: 112 µM [inhibitor, single point] |  |
| COc1ccc(Cc2c(-c3cccc(Br)c3)nc3cc(C)c(Br)c(C)n23)c(C)c1 | inconclusive: 3.98 µM [inhibitor, full curve, poor fit] |  |
| O=C(CSc1ncnc2scc(-c3ccccc3)c12)Nc1ccc(F)cc1 | inconclusive: 89.1 µM [inhibitor, partial curve, poor fit] |  |
| Nc1ccc(-c2cc(N)n(-c3ccccc3)n2)cc1 | inconclusive: 50.1 µM [inhibitor, single point] |  |
| c1cc(CN2CCN(C3CCCCCC3)CC2)ccn1 | inconclusive: 0.562 µM [inhibitor, full curve] |  |
| CC(NC(=O)Cc1cccs1)C12CC3CC(CC(C3)C1)C2 (stereo not given) | inconclusive: 70.8 µM [inhibitor, partial curve, poor fit] |  |
| CN1C(C(=O)c2ccccc2)=C(OC(=O)c2ccc(Br)cc2)c2ccccc2S1(=O)=O |  | inactive: -3.03% |
| CC1(NC(=O)CC(c2ccccc2)(c2ccccc2)c2ccccc2)CCN(Cc2ccc(-c3ccccc3)cc2)C1=O (stereo not given) | inconclusive: 100 µM [inhibitor, partial curve, poor fit] |  |
| Cn1c(-c2ccccc2)cnc1NCc1ccc(F)cc1 | inconclusive: 1.41 µM [inhibitor, partial curve, poor fit] |  |
| C[N+]1(C)CCc2cc3c(cc2[C@@H]1[C@@H]1C(=O)Oc2c1ccc1c2OCO1)OCO3 | inconclusive: 35.5 µM [inhibitor, single point] |  |
| Cc1ccc(NC(=O)Nc2ccc3c(c2)N(C)C(=O)c2ccccc2S3)c(C)c1 |  | inactive: -20% |
| COCCCn1c(=O)/c(=C/c2ccccc2OC(C)C)s/c1=C(\C#N)C(=O)Nc1ccc(C(=O)O)cc1 | inconclusive: 35.5 µM [inhibitor, partial curve, poor fit] |  |
| O=C(CCc1cccnc1)Nc1nc(-c2ccc3c(c2)CCO3)cs1 |  | inactive: -5.5% |
| Cc1ccc(SCc2ccc(-c3nc(C4CCOC4)no3)o2)cc1 (stereo not given) | inconclusive: 31.6 µM [inhibitor, full curve] |  |

4 of the compounds above, as labelled records.
Cc1ccc(NC(=S)Nc2ccc3cn[nH]c3c2)cc1C
  Potency: inconclusive: 44.7 µM [inhibitor, partial curve, poor fit]
CCOc1ccc(NC(=O)CSc2nc3c(oc4ccccc43)c(=O)n2-c2ccccc2C)cc1
  activity change, negative = inhibition: inactive: -24%
C[N+](C)(C)CCNC(=O)c1c[nH]c2ccccc12
  Potency: inconclusive: 17.8 µM [inhibitor, partial curve, poor fit]
O=c1cc(-c2ccccc2Cl)oc2c([N+](=O)[O-])c(O)cc(O)c12
  Potency: inconclusive: 50.1 µM [inhibitor, partial curve, poor fit]
